No constants are given. Whether binding was seen depends on the method and setting. In cells and extracts the contact can be indirect. Some entries that bind do so weakly or less than the wild type. For part of these data: Tags and fused reporters may be left off the sequences shown.
Tests used:
[1] = target: T1, Grainyhead-like 3 (GRHL3), endogenous in MCF7 cells (human (endogenous in MCF7)) (UniProt Q8TE85); assay: co-IP; MCF7 cell extracts, endogenous proteins, immunoprecipitation with an antibody against GRHL3
T1 sequence: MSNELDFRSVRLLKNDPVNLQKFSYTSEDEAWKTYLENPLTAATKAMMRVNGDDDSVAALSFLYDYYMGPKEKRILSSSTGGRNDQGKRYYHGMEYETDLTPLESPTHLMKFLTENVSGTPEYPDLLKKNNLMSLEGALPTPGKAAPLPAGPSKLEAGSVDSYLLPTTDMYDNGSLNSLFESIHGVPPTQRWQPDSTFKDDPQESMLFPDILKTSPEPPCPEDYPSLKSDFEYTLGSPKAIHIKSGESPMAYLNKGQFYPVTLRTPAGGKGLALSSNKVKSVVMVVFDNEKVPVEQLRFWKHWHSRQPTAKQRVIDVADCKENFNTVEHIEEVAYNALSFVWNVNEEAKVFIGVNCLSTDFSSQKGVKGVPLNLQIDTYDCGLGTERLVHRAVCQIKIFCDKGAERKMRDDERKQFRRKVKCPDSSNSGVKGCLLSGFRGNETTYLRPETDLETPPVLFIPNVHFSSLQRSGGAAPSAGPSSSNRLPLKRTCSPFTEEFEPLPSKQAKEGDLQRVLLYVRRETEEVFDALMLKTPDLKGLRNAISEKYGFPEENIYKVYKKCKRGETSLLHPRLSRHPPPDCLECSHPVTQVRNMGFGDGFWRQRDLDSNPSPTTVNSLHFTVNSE

[2] = target: T2, enhanced green fluorescent protein (EGFP) fused to GRHL3 (UniProt Q5FWH3); assay: co-IP; visible immunoprecipitation (VIP) assay: extracts of co-transfected HEK293T cells, nanobody beads that bind EGFP, RFP fluorescence on the beads observed
T2 sequence: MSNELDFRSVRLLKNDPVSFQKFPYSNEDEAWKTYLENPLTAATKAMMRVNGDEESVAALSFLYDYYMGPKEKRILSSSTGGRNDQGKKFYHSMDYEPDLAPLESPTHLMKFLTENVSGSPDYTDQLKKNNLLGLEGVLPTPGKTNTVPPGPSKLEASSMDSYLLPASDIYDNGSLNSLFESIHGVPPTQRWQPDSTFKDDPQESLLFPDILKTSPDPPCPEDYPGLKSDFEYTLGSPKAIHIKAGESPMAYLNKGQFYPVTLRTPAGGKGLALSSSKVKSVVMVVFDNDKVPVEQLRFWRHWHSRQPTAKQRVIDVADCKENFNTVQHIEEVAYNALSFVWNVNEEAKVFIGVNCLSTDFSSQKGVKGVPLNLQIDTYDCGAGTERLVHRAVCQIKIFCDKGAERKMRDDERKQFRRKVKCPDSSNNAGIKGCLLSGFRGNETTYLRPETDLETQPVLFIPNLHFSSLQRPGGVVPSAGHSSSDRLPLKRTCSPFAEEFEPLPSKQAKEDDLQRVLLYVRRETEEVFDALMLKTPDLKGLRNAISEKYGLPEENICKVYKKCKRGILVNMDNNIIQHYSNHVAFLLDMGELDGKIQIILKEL

[3] = target: T3, GRHL3, endogenous in MBT2 cells and mouse eyelid periderm cells (mouse (endogenous in MBT2 cells and mouse eyelid)) (UniProt Q5FWH3); assay: proximity ligation; Duolink in situ PLA at endogenous protein levels in MBT2 cells and mouse eyelid tissue; mouse anti-GRHL3 and rabbit anti-USP39; distances <40 nm
T3 sequence: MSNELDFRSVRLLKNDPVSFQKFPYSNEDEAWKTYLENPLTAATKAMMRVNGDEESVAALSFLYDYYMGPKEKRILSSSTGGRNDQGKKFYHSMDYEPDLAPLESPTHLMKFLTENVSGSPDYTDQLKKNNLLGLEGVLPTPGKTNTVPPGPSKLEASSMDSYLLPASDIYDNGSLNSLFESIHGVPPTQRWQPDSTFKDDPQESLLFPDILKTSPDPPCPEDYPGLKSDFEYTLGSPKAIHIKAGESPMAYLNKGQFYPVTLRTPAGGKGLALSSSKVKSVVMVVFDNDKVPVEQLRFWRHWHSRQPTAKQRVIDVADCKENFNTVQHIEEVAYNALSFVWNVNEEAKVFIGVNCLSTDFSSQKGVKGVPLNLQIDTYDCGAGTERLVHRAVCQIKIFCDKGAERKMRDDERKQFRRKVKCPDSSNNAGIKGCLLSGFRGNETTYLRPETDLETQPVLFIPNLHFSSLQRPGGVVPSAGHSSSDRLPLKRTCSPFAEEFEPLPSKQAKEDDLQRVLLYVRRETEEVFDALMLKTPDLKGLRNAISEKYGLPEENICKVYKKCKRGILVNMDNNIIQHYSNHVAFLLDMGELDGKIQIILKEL

B1: ubiquitin-specific protease 39 (USP39), endogenous in MCF7 cells (protein, UniProt Q53GS9 1-565)
chain: MSGRSKRESRGSTRGKRESESRGSSGRVKRERDREREPEAASSRGSPVRVKREFEPASAREAPASVVPFVRVKREREVDEDSEPEREVRAKNGRVDSEDRRSRHCPYLDTINRSVLDFDFEKLCSISLSHINAYACLVCGKYFQGRGLKSHAYIHSVQFSHHVFLNLHTLKFYCLPDNYEIIDSSLEDITYVLKPTFTKQQIANLDKQAKLSRAYDGTTYLPGIVGLNNIKANDYANAVLQALSNVPPLRNYFLEEDNYKNIKRPPGDIMFLLVQRFGELMRKLWNPRNFKAHVSPHEMLQAVVLCSKKTFQITKQGDGVDFLSWFLNALHSALGGTKKKKKTIVTDVFQGSMRIFTKKLPHPDLPAEEKEQLLHNDEYQETMVESTFMYLTLDLPTAPLYKDEKEQLIIPQVPLFNILAKFNGITEKEYKTYKENFLKRFQLTKLPPYLIFCIKRFTKNNFFVEKNPTIVNFPITNVDLREYLSEEVQAVHKNTTYDLIANIVHDGKPSEGSYRIHVLHHGTGKWYELQDLQVTDILPQMITLSEAYIQIWKRRDNDETNQQGA
- binding [1]: binds

B2: RFP fused to USP39 (protein, UniProt Q3TIX9 1-564)
chain: MSSRSKRQSHGSTRGKRESESRGSSGRIKKERDREKEPEAASSRGSPVRVKREAEPAAREVPAPALPVVRVKREREADEDSEPEREVRAKNGRVDSEDRRSRHCPYLDTINRSVLDFDFEKLCSISLSHINAYACLVCGKYFQGRGLKSHAYIHSVQFSHHVFLNLHTLKFYCLPDNYEIIDSSLEDITYVLKPTFTKQQIANLDKQAKLSRAYDGTTYLPGIVGLNNIKANDYANAVLQALSNVPPLRNYFLEEDNYKNIKRPPGDIMFLLVQRFGELMRKLWNPRNFKAHVSPHEMLQAVVLCSKKTFQITKQGDGVDFLSWFLNALHSALGGTKKKKKTIVNDVFQGSMRIFTKKLPHPDLPAEEKEQLLHNDEYQETMVESTFMYLTLDLPTAPLYKDEKEQLIIPQVPLFNILAKFNGITEKEYKTYKENFLKRFQLTKLPPYLIFCIKRFTKNNFFVEKNPTIVNFPITNVDLREYLSEEVQAVHKNTTYDLIANIVHDGKPSEGSYRIHVLHHGTGKWYELQDLQVTDILPQMITLSEAYIQIWKRRDNDETNQQGA
- binding [2]: binds

B3: USP39, endogenous in MBT2 cells and mouse eyelid periderm cells (protein, UniProt Q3TIX9 1-564)
chain: MSSRSKRQSHGSTRGKRESESRGSSGRIKKERDREKEPEAASSRGSPVRVKREAEPAAREVPAPALPVVRVKREREADEDSEPEREVRAKNGRVDSEDRRSRHCPYLDTINRSVLDFDFEKLCSISLSHINAYACLVCGKYFQGRGLKSHAYIHSVQFSHHVFLNLHTLKFYCLPDNYEIIDSSLEDITYVLKPTFTKQQIANLDKQAKLSRAYDGTTYLPGIVGLNNIKANDYANAVLQALSNVPPLRNYFLEEDNYKNIKRPPGDIMFLLVQRFGELMRKLWNPRNFKAHVSPHEMLQAVVLCSKKTFQITKQGDGVDFLSWFLNALHSALGGTKKKKKTIVNDVFQGSMRIFTKKLPHPDLPAEEKEQLLHNDEYQETMVESTFMYLTLDLPTAPLYKDEKEQLIIPQVPLFNILAKFNGITEKEYKTYKENFLKRFQLTKLPPYLIFCIKRFTKNNFFVEKNPTIVNFPITNVDLREYLSEEVQAVHKNTTYDLIANIVHDGKPSEGSYRIHVLHHGTGKWYELQDLQVTDILPQMITLSEAYIQIWKRRDNDETNQQGA
- binding [3]: binds

— PMC9018712
